Laboratory results: paper PMC8175508
Like-named read-outs stand apart in the source and are kept apart here. These are yes or no findings as the source states them, for the method shown. Binding seen in cells or lysates may run through a third protein. These calls come from enrichment with a bait or labelling near it, and not all partners need be listed.

Amino acid sequences for entries named in this document (tags omitted). A change or cut given only in a name is not applied to a line headed by its entry.
UniProt I7LUX8: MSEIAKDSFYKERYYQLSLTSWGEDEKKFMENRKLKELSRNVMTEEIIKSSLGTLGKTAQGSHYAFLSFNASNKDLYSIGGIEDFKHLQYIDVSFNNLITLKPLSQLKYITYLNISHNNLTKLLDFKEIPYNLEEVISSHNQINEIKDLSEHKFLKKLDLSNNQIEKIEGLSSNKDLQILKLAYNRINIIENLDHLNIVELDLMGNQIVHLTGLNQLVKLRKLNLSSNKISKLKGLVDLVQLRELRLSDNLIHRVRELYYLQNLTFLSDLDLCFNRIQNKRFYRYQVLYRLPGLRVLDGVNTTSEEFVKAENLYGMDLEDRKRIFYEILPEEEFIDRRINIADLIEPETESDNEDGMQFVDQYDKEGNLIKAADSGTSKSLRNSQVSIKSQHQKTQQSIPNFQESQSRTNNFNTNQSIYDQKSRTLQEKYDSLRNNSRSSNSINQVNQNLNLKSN
UniProt I7M670: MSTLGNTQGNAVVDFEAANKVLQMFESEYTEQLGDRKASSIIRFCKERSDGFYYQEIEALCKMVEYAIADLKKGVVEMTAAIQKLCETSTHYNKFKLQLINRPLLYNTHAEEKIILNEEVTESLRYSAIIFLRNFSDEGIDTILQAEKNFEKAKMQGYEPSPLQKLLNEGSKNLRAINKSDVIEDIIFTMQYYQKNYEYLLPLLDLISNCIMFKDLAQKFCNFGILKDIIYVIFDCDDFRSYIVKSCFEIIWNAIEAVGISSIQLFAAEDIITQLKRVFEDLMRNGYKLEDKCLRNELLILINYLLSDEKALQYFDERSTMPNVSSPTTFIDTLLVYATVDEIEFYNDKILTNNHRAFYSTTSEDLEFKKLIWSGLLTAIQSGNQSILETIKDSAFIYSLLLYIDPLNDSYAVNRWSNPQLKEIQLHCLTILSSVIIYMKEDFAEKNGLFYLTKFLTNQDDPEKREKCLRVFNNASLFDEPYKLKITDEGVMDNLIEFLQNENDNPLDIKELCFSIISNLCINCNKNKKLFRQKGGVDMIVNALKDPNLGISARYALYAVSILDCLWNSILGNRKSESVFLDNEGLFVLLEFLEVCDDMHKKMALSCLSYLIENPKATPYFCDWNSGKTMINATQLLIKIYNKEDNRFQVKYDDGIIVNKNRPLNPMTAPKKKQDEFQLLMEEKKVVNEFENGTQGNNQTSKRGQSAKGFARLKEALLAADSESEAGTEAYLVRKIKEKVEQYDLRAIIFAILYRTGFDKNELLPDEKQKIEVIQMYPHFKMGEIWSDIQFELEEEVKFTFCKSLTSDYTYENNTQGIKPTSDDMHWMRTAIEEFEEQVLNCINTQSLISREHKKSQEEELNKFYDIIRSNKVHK
UniProt I7LVL5: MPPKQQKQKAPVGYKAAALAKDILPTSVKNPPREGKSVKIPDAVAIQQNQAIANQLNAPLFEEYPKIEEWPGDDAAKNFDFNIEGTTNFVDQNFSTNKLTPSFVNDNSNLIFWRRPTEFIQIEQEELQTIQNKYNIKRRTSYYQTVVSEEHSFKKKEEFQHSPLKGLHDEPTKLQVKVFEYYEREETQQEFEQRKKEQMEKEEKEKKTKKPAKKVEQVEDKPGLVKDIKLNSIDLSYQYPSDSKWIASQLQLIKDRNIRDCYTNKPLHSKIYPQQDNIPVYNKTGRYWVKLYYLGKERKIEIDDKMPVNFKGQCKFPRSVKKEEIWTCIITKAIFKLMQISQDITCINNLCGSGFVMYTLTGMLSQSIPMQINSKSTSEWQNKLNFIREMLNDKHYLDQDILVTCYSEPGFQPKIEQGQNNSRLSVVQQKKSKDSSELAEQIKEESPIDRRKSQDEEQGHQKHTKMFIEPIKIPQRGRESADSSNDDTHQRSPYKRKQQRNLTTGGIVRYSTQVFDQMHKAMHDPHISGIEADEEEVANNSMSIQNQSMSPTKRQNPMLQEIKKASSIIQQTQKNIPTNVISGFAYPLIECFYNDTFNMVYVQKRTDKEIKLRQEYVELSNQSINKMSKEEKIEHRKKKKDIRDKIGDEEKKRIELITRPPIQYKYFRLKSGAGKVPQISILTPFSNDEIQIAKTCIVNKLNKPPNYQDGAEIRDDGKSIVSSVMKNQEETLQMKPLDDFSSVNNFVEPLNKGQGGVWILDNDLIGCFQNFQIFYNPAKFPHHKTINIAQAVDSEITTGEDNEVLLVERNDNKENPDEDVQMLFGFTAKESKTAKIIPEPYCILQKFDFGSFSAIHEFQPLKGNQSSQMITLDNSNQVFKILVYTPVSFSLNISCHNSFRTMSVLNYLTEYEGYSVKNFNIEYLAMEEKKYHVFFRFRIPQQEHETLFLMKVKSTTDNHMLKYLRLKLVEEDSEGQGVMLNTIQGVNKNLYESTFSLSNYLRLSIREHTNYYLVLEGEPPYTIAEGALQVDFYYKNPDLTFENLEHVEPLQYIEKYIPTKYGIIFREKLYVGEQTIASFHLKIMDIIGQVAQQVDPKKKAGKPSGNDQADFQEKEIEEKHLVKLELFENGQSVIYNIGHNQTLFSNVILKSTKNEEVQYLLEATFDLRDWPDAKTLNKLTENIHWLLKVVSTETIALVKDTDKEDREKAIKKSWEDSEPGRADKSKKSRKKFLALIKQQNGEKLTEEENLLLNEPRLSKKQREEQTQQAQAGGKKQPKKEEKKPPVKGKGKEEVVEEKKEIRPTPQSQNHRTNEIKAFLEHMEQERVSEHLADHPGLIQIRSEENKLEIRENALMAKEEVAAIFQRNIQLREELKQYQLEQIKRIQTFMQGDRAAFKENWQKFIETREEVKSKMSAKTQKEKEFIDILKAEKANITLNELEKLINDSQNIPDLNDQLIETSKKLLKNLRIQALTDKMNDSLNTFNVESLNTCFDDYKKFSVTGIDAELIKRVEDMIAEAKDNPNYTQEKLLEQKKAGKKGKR
UniProt Q23G22: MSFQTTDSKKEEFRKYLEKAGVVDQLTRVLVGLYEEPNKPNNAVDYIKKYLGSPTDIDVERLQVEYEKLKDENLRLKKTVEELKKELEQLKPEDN

Tests used:
[1] = target: Cfap246-HA-BirA* (Tetrahymena thermophila) (UniProt I7LUX8); experiment: proximity labelling; BioID in Tetrahymena cells expressing C-terminal HA-BirA* fusions under native promoters; starved cells, 50 µM biotin, 4 h at 30 °C; axonemes lysed (0.4% SDS, 0.5 M NaCl); biotinylated ciliary proteins bound to streptavidin Dynabeads and identified by LC-MS/MS; wild-type cilia as negative control
[2] = target: Cfap69-HA-BirA* (Tetrahymena thermophila) (UniProt I7M670); experiment: as above
[3] = target: Spef2A-HA-BirA* (Tetrahymena thermophila) (UniProt Q22AX1); experiment: as above
[4] = target: Adgb-3HA (Tetrahymena thermophila) (UniProt I7LVL5); experiment: affinity purification with mass spectrometry; 3HA-tagged bait under native promoter; cilia extracted with NP-40 and NaCl (final 1% and 0.6 M), supernatant diluted 4x; anti-HA agarose overnight at 4 °C; washes with 150 mM NaCl, 0.25% NP-40; bound proteins identified by mass spectrometry; wild-type cilia as control
[5] = target: Cfap246-HA-BirA* (Tetrahymena thermophila) (UniProt I7LUX8); experiment: proximity labelling; BioID in Tetrahymena cells expressing C-terminal HA-BirA* fusions under native promoters; starved cells, 50 µM biotin, 4 h at 30 °C; axonemes lysed (0.4% SDS, 0.5 M NaCl); biotinylated ciliary proteins bound to streptavidin Dynabeads and identified by LC-MS/MS; wild-type cilia as negative control; remark: listed apart in the source
[6] = target: Cfap69-HA-BirA* (Tetrahymena thermophila) (UniProt I7M670); experiment: as above; remark: listed apart in the source
[7] = target: Spef2A-HA-BirA* (Tetrahymena thermophila) (UniProt Q22AX1); experiment: as above; remark: listed apart in the source

Measured: binding

Androglobin/Adgb (from UniProt I7LVL5)
binds: [1] | [2] | [3]

Cfap69 (from UniProt I7M670)
binds: [4] | [1] | [3]

Cfap174 (from UniProt Q23G22)
binds: [4] | [1] | [2] | [3]

Cfap246 (from UniProt I7LUX8)
binds: [4] | [2] | [3]

B1: Tt170 (protein, UniProt Q22NC6 1-154)
chain: MNSSLKYGKGSRPEDDYQQYNNTQKGFNNTQSSFGTNPASLKGKLMSLEEMIKNIADEMNFHKKEVQILKSEKDTLQSVLSMKTQDVKKTLTSELMRIEEEMKRHFAHQKAENARLQQQITSLKGEKTALQQQLLGLQRRITELEMQVGNEDNH
binds: [5] | [6] | [7]
